In US9855260B2, “Quinolinone derivatives” (GlaxoSmithKline LLC, priority 2011, dated 2018):
Some of these results come from one statement about several compounds together.

system: Human recombinant AMPK; test: AMPK Enzymatic Assay (Z'Lyte FRET format); assay type: biochemical; settings: AMPK activation, ATP 100 μM, means of at least 2 independent experiments

Q: How did the “average pEC200 (-Log(compound concentration leading to a 2-fold AMPK activity increase))” value turn out when CC(C)c1ccc(-c2cc3c(O)c(Oc4ccccc4)c(=O)[nH]c3cc2Cl)cc1 [Example 71, 7-Chloro-4-hydroxy-6-(4-isopropylphenyl)-3-phenoxyquinolin-2(1H)-one] was run?
A: greater than or equal to 5.0

Q: For O=c1[nH]c2cc(Cl)c(-c3ccc(-n4cccn4)cc3)cc2c(O)c1-n1cccn1 [Example 125, 6-(4-(1H-Pyrazol-1-yl)phenyl)-7-chloro-4-hydroxy-3-(1H-pyrazol-1-yl)quinolin-2(1H)-one], which “average pEC200 (-Log(compound concentration leading to a 2-fold AMPK activity increase))” value is on record?
A: greater than or equal to 5.0

Q: O=c1[nH]c2cc(Cl)c(-c3ccc(N4CCCCC4)cc3)cc2c(O)c1-c1ccccc1 [Example 52, 7-Chloro-4-hydroxy-3-phenyl-6-(4-(piperidin-1-yl)phenyl)quinolin-2(1H)-one] was tested. Which “average pEC200 (-Log(compound concentration leading to a 2-fold AMPK activity increase))” value did it give?
A: greater than or equal to 5.0

Q: With O=c1[nH]c2cc(Cl)c(-c3ccc(N4CCCCC4)cc3)cc2c(O)c1-n1cccn1 [Example 97, 7-Chloro-4-hydroxy-6-(4-(piperidin-1-yl)phenyl)-3-(1H-pyrazol-1-yl)quinolin-2(1H)-one] as the compound, how does the “average pEC200 (-Log(compound concentration leading to a 2-fold AMPK activity increase))” value read?
A: greater than or equal to 5.0

Q: Cn1ccc2cc(-c3cc4c(O)c(Oc5cccc(F)c5)c(=O)[nH]c4cc3Cl)ccc21 [Example 113, 7-Chloro-3-(3-fluorophenoxy)-4-hydroxy-6-(1-methyl-1H-indol-5-yl)quinolin-2(1H)-one] was tested. Which “average pEC200 (-Log(compound concentration leading to a 2-fold AMPK activity increase))” value did it give?
A: greater than or equal to 5.0

Q: For COc1cccc(-c2ccc(-c3cc4c(O)c(-n5cccn5)c(=O)[nH]c4cc3Cl)cc2)c1O [Example 55, 7-Chloro-4-hydroxy-6-(2′-hydroxy-3′-methoxy-[1,1′-biphenyl]-4-yl)-3-(1H-pyrazol-1-yl)quinolin-2(1H)-one], which “average pEC200 (-Log(compound concentration leading to a 2-fold AMPK activity increase))” value is on record?
A: greater than or equal to 5.0

Q: Which “average pEC200 (-Log(compound concentration leading to a 2-fold AMPK activity increase))” value does the source give for Cn1cc(-c2c(O)c3cc(-c4ccc5c(ccn5C)c4)c(Cl)cc3[nH]c2=O)cn1 [Example 132, 7-Chloro-4-hydroxy-6-(1-methyl-1H-indol-5-yl)-3-(1-methyl-1H-pyrazol-4-yl)quinolin-2(1H)-one] here?
A: greater than or equal to 5.0

Q: How did the “average pEC200 (-Log(compound concentration leading to a 2-fold AMPK activity increase))” value turn out when Cc1cc(-c2c(O)c3cc(-c4ccc(C5(CO)CCCC5)cc4)c(Cl)cc3[nH]c2=O)on1 [Example 163, 7-Chloro-4-hydroxy-6-(4-(1-(hydroxymethyl)cyclopentyl)phenyl)-3-(3-methylisoxazol-5-yl) quinolin-2(1H)-one] was run?
A: greater than or equal to 5.0

Q: CCOC(=O)c1c(O)c2cc(-c3ccc4c(ccn4C)c3)c(Cl)cc2[nH]c1=O [Example 27, Ethyl 7-chloro-4-hydroxy-6-(1-methyl-1H-indol-5-yl)-2-oxo-1,2-dihydro-3-quinolinecarboxylate] was tested. Which “average pEC200 (-Log(compound concentration leading to a 2-fold AMPK activity increase))” value did it give?
A: greater than or equal to 5.0

Q: Which “average pEC200 (-Log(compound concentration leading to a 2-fold AMPK activity increase))” value does the source give for CN(C)c1ccc(-c2cc3c(O)c(-c4cccnc4)c(=O)[nH]c3cc2Cl)cc1 [Example 91, 7-Chloro-6-(4-(dimethylamino)phenyl)-4-hydroxy-3-(pyridin-3-yl)quinolin-2(1H)-one] here?
A: greater than or equal to 5.0

Q: How did the “average pEC200 (-Log(compound concentration leading to a 2-fold AMPK activity increase))” value turn out when CCOC(=O)c1c(O)c2cc(-c3ccc(N4CCOCC4)cc3)c(Cl)cc2[nH]c1=O [Example 30, Ethyl 7-chloro-4-hydroxy-6-[4-(4-morpholinyl)phenyl]-2-oxo-1,2-dihydro-3-quinolinecarboxylate] was run?
A: greater than or equal to 5.0

Q: For Cn1ccc2cc(-c3cc4c(O)c(-c5ccccc5)c(=O)[nH]c4cc3Cl)ccc21 [Example 10, 7-Chloro-4-hydroxy-6-(1-methyl-1H-indol-5-yl)-3-phenylquinolin-2(1H)-one], which “average pEC200 (-Log(compound concentration leading to a 2-fold AMPK activity increase))” value is on record?
A: greater than or equal to 5.0

Q: With O=c1[nH]c2cc(Cl)c(-c3ccc(N4CCCCC4)cc3)cc2c(O)c1-c1cccc(Cl)c1 [Example 196, 7-Chloro-3-(3-chlorophenyl)-4-hydroxy-6-(4-(piperidin-1-yl)phenyl) quinolin-2(1H)-one] as the compound, how does the “average pEC200 (-Log(compound concentration leading to a 2-fold AMPK activity increase))” value read?
A: greater than or equal to 5.0

Q: For Cc1cnn(-c2c(O)c3cc(-c4ccc(N5CCCCC5)cc4)c(Cl)cc3[nH]c2=O)c1 [Example 140, 7-Chloro-4-hydroxy-3-(4-methyl-1H-pyrazol-1-yl)-6-(4-(piperidin-1-yl)phenyl)quinolin-2(1H)-one], which “average pEC200 (-Log(compound concentration leading to a 2-fold AMPK activity increase))” value is on record?
A: greater than or equal to 5.0

Q: How did the “average pEC200 (-Log(compound concentration leading to a 2-fold AMPK activity increase))” value turn out when Cc1ccc(Oc2c(O)c3cc(-c4ccc5c(ccn5C)c4)c(Cl)cc3[nH]c2=O)cc1 [Example 112, 7-Chloro-4-hydroxy-6-(1-methyl-1H-indol-5-yl)-3-(p-tolyloxy)quinolin-2(1H)-one] was run?
A: greater than or equal to 5.0

Q: Cc1nonc1-c1c(O)c2cc(-c3ccc(N4CCCC4)cc3)c(Cl)cc2[nH]c1=O [Example 106, 7-Chloro-4-hydroxy-3-(4-methyl-1,2,5-oxadiazol-3-yl)-6-(4-(pyrrolidin-1-yl)phenyl)quinolin-2(1H)-one] was tested. Which “average pEC200 (-Log(compound concentration leading to a 2-fold AMPK activity increase))” value did it give?
A: greater than or equal to 5.0

Q: Cc1ccnn1-c1c(O)c2cc(-c3ccc(N(C)C)cc3)c(Cl)cc2[nH]c1=O [Example 116, 7-Chloro-6-(4-(dimethylamino)phenyl)-4-hydroxy-3-(5-methyl-1H-pyrazol-1-yl)quinolin-2(1H)-one] was tested. Which “average pEC200 (-Log(compound concentration leading to a 2-fold AMPK activity increase))” value did it give?
A: greater than or equal to 5.0

Q: COc1cccc(-c2ccc(-c3cc4c(O)c(C(=O)O)c(=O)[nH]c4cc3Cl)cc2)c1O [Example 193, 7-chloro-4-hydroxy-6-[2′-hydroxy-3′-(methyloxy)-4-biphenylyl]-2-oxo-1,2-dihydro-3-quinolinecarboxylic acid] was tested. Which “average pEC200 (-Log(compound concentration leading to a 2-fold AMPK activity increase))” value did it give?
A: greater than or equal to 5.0

Q: With CN(C)c1ccc(-c2cc3c(O)c(-c4ccc(Cl)cc4)c(=O)[nH]c3cc2Cl)cc1 [Example 152, 7-Chloro-3-(4-chlorophenyl)-6-(4-(dimethylamino)phenyl)-4-hydroxyquinolin-2(1H)-one] as the compound, how does the “average pEC200 (-Log(compound concentration leading to a 2-fold AMPK activity increase))” value read?
A: greater than or equal to 5.0

Q: For Cc1cc(-c2c(O)c3cc(-c4ccc5c(ccn5C)c4)c(Cl)cc3[nH]c2=O)on1 [Example 99, 7-Chloro-4-hydroxy-6-(1-methyl-1H-indol-5-yl)-3-(3-methylisoxazol-5-yl)quinolin-2(1H)-one], which “average pEC200 (-Log(compound concentration leading to a 2-fold AMPK activity increase))” value is on record?
A: greater than or equal to 5.0

Q: Which “average pEC200 (-Log(compound concentration leading to a 2-fold AMPK activity increase))” value does the source give for COc1cccc(Oc2c(O)c3cc(-c4ccc(N5CCCC5)cc4)c(Cl)cc3[nH]c2=O)c1 [Example 73, 7-Chloro-4-hydroxy-3-(3-methoxyphenoxy)-6-(4-(pyrrolidin-1-yl)phenyl)quinolin-2(1H)-one] here?
A: greater than or equal to 5.0

Q: With CN(C)c1ccc(-c2cc3c(O)c(-c4cccc(F)c4)c(=O)[nH]c3cc2Cl)cc1 [Example 137, 7-Chloro-6-(4-(dimethylamino)phenyl)-3-(3-fluorophenyl)-4-hydroxyquinolin-2(1H)-one] as the compound, how does the “average pEC200 (-Log(compound concentration leading to a 2-fold AMPK activity increase))” value read?
A: greater than or equal to 5.0

Q: For Cc1ccc(Oc2c(O)c3cc(-c4ccc(N(C)C)cc4)c(Cl)cc3[nH]c2=O)nc1 [Example 177, 7-Chloro-6-(4-(dimethylamino)phenyl)-4-hydroxy-3-((5-methylpyridin-2-yl)oxy)quinolin-2(1H)-one], which “average pEC200 (-Log(compound concentration leading to a 2-fold AMPK activity increase))” value is on record?
A: greater than or equal to 5.0

Q: Which “average pEC200 (-Log(compound concentration leading to a 2-fold AMPK activity increase))” value does the source give for COc1ccccc1-c1c(O)c2cc(-c3ccc(N(C)C)cc3)c(Cl)cc2[nH]c1=O [Example 151, 7-Chloro-6-(4-(dimethylamino)phenyl)-4-hydroxy-3-(2-methoxyphenyl)quinolin-2(1H)-one] here?
A: greater than or equal to 5.0

Q: How did the “average pEC200 (-Log(compound concentration leading to a 2-fold AMPK activity increase))” value turn out when CN(C)c1ccc(-c2cc3c(O)c(Sc4ccccc4)c(=O)[nH]c3cc2Cl)cc1 [Example 120, 7-Chloro-6-(4-(dimethylamino)phenyl)-4-hydroxy-3-(phenylthio)quinolin-2(1H)-one] was run?
A: greater than or equal to 5.0

Q: For Cl.Nc1nc(-c2ccc(-c3cc4c(O)c(-c5ccccc5)c(=O)[nH]c4cc3Cl)cc2)cs1 [Example 182, 6-[4-(2-Amino-1,3-thiazol-4-yl)phenyl]-7-chloro-4-hydroxy-3-phenylquinolin-2(1H)-one hydrochloride], which “average pEC200 (-Log(compound concentration leading to a 2-fold AMPK activity increase))” value is on record?
A: greater than or equal to 5.0

Q: How did the “average pEC200 (-Log(compound concentration leading to a 2-fold AMPK activity increase))” value turn out when O=c1[nH]c2cc(Cl)c(-c3ccc(N4CCCC4)cc3)cc2c(O)c1-n1cccn1 [Example 67, 7-Chloro-4-hydroxy-3-(1H-pyrazol-1-yl)-6-(4-(pyrrolidin-1-yl)phenyl)quinolin-2(1H)-one] was run?
A: greater than or equal to 5.0

Q: Which “average pEC200 (-Log(compound concentration leading to a 2-fold AMPK activity increase))” value does the source give for O=c1[nH]c2cc(Cl)c(-c3ccc(CO)cc3)cc2c(O)c1Sc1ccccc1 [Example 122, 7-Chloro-4-hydroxy-6-(4-(hydroxymethyl)phenyl)-3-(phenylthio)quinolin-2(1H)-one] here?
A: greater than or equal to 5.0

Q: How did the “average pEC200 (-Log(compound concentration leading to a 2-fold AMPK activity increase))” value turn out when Cc1cc(-c2c(O)c3cc(-c4ccc(N5CCOCC5)cc4)c(Cl)cc3[nH]c2=O)on1 [Example 31, 7-Chloro-4-hydroxy-3-(3-methylisoxazol-5-yl)-6-(4-morpholinophenyl)quinolin-2(1H)-one] was run?
A: greater than or equal to 5.0
